# Experimental data published in the supplement of paper PMC10032668.
# The chains behind the UniProt entries cited, without tags or fusion partners.
# ATG3, Q9NT62, UniProt Q9NT62, whole entry: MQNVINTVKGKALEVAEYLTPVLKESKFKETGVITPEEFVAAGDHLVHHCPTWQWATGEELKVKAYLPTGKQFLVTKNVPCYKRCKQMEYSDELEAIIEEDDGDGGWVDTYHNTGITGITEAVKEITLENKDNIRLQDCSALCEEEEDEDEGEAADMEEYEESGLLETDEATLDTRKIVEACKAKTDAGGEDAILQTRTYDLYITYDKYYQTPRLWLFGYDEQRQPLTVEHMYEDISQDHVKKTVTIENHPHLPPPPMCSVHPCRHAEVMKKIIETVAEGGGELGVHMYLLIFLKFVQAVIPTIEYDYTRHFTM
# CAPRIN1, Q14444, UniProt Q14444, whole entry: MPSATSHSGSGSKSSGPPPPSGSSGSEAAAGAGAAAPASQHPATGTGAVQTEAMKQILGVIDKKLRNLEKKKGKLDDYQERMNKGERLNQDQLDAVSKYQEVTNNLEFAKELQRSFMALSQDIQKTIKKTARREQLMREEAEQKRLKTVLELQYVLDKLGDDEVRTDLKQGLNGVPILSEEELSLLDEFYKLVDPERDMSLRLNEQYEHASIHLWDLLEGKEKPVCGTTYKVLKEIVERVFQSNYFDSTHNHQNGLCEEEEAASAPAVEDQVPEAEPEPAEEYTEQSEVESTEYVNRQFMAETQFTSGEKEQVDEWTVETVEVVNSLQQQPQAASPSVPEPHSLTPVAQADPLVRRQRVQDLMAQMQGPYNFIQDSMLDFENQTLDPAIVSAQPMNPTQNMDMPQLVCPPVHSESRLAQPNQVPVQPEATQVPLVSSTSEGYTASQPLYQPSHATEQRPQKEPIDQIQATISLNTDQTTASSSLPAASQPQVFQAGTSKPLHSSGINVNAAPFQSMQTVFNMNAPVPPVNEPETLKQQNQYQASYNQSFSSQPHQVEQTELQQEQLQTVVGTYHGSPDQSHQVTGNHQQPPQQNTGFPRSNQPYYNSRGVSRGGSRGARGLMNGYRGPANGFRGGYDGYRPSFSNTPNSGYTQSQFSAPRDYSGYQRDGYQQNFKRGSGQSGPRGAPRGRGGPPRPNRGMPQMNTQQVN
# CCNB1, P14635, UniProt P14635, whole entry: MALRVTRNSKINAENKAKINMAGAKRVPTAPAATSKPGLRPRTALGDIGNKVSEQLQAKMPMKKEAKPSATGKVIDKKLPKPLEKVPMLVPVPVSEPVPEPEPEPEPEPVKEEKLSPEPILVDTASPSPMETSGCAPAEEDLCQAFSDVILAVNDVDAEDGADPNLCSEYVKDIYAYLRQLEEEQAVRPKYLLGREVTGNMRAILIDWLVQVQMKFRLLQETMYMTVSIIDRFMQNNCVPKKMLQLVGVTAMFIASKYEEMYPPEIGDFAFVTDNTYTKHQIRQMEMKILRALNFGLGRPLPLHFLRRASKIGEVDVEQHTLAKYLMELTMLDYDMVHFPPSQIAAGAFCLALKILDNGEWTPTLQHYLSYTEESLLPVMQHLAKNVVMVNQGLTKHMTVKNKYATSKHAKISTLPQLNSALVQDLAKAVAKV
# DMAP1, Q9NPF5, UniProt Q9NPF5, whole entry: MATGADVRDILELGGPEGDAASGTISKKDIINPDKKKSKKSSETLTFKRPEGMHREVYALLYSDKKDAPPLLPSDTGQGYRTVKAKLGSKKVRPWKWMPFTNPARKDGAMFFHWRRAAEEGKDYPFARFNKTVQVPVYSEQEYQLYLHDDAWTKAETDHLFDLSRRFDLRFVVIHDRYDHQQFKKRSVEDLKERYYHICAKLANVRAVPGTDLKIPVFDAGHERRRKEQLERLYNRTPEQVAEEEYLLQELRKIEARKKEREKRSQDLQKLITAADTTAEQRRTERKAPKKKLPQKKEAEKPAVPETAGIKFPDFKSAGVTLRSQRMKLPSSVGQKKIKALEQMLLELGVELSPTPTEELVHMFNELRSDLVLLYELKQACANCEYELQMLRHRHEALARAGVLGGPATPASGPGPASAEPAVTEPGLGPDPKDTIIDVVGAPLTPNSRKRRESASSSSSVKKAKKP
# EIF1, P41567, UniProt P41567, whole entry: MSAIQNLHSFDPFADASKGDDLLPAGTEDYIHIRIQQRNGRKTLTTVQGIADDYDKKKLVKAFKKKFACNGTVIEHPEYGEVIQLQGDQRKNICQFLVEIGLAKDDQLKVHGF
# KHDRBS1, Q07666, UniProt Q07666, whole entry: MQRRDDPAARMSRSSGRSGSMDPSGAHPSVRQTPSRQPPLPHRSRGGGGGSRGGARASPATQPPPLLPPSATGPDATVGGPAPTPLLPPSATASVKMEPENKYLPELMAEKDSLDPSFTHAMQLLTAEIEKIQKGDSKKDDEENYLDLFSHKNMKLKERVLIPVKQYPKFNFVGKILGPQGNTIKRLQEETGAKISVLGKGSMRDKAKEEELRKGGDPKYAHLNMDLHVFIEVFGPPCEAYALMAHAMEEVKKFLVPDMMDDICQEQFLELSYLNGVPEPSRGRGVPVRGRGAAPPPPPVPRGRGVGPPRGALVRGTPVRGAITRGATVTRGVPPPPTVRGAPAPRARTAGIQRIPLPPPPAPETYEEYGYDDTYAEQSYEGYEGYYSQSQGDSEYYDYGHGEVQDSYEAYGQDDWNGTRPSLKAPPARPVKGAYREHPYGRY
# MORF4L2, Q15014, UniProt Q15014, whole entry: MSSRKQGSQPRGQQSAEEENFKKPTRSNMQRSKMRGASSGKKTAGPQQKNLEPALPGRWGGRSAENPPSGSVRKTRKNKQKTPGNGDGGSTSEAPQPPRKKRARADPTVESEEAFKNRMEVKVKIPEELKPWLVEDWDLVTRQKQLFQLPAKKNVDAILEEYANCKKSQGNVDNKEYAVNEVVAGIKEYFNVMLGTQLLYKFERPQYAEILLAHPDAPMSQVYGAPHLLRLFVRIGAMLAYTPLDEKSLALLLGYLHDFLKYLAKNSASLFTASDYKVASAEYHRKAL
# NDUFS5, O43920, UniProt O43920, whole entry: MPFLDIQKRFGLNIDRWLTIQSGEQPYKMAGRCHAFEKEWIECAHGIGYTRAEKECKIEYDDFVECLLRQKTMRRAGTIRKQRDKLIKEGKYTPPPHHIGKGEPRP
# YBX1, P67809, UniProt P67809, whole entry: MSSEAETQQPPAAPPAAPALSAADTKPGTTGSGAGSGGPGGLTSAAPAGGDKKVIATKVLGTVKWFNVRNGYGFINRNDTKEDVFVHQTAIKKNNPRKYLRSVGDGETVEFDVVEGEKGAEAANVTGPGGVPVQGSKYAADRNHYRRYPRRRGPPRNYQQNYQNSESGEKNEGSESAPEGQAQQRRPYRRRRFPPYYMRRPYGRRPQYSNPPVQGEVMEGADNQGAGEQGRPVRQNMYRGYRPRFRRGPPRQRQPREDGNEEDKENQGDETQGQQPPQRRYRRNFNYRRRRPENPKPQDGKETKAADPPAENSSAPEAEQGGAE
# YBX3, P16989, UniProt P16989, whole entry: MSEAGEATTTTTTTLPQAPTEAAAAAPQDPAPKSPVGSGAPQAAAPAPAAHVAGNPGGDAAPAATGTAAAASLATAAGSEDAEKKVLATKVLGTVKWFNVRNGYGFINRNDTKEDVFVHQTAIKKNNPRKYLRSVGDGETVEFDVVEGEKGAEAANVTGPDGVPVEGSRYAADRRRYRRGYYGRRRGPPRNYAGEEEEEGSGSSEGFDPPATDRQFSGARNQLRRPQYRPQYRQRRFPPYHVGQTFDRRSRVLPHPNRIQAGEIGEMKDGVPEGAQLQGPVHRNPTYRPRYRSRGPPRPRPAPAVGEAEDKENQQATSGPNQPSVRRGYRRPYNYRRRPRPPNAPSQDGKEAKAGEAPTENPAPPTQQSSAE
# ± gives the standard deviation of the averaged measurements. This is one part of the list. The list holds hits alone, and they repeat only in part.
# B1: NDUFB3 (peptide)
# chain: FVVAVGAEYYLESLN
# Tests used:
# Experiment in all cases: PRISMA enrichment of interactor (LFQ) in peptide spot vs all other peptide spots (log2 fold change); higher = stronger / more specific binding of the interactor to the peptide
# ALYREF, Q86V81 = target: ALYREF, Q86V81
# Protocol: (§1)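 PRISMA: 15-aa overlapping tiles (offset 8 aa) of 60 microproteins, plus SOS1/GLUT1 control peptides, were spot-synthesized on cellulose membranes in triplicate. Membranes were incubated with benzonase-treated HEK293T lysate, and bound proteins were identified by LC-MS/MS with LFQ. Enrichment is the log2 fold change of each protein in one spot versus all other spots. Only interactors passing the significance cutoff are listed.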
# ATG3, Q9NT62 = target: ATG3, Q9NT62
# Protocol: as §1
# BUD23, O43709 = target: BUD23, O43709
# Protocol: as §1
# C19orf53, Q9UNZ5 = target: C19orf53, Q9UNZ5
# Protocol: as §1
# CALD1, Q05682 = target: CALD1, Q05682
# Protocol: as §1
# CAPRIN1, Q14444 = target: CAPRIN1, Q14444
# Protocol: as §1
# CCDC86, Q9H6F5 = target: CCDC86, Q9H6F5
# Protocol: as §1
# CCNB1, P14635 = target: CCNB1, P14635
# Protocol: as §1
# CDCA5, Q96FF9 = target: CDCA5, Q96FF9
# Protocol: as §1
# CDKN2AIPNL, Q96HQ2 = target: CDKN2AIPNL, Q96HQ2
# Protocol: as §1
# CHTOP, Q9Y3Y2 = target: CHTOP, Q9Y3Y2
# Protocol: as §1
# CIRBP, Q14011 = target: CIRBP, Q14011
# Protocol: as §1
# CSRP2, Q16527 = target: CSRP2, Q16527
# Protocol: as §1
# DDX42, Q86XP3 = target: DDX42, Q86XP3
# Protocol: as §1
# DDX5, P17844 = target: DDX5, P17844
# Protocol: as §1
# DMAP1, Q9NPF5 = target: DMAP1, Q9NPF5
# Protocol: as §1
# DNAJC8, O75937 = target: DNAJC8, O75937
# Protocol: as §1
# ECHS1, P30084 = target: ECHS1, P30084
# Protocol: as §1
# EDF1, O60869 = target: EDF1, O60869
# Protocol: as §1
# EIF1, P41567 = target: EIF1, P41567
# Protocol: as §1
# EIF4H, Q15056 = target: EIF4H, Q15056
# Protocol: as §1
# EWSR1, Q01844 = target: EWSR1, Q01844
# Protocol: as §1
# FKBP2, P26885 = target: FKBP2, P26885
# Protocol: as §1
# FUS, P35637 = target: FUS, P35637
# Protocol: as §1
# G3BP1, Q13283 = target: G3BP1, Q13283
# Protocol: as §1
# G3BP2, Q9UN86 = target: G3BP2, Q9UN86
# Protocol: as §1
# HMGA1, P17096 = target: HMGA1, P17096
# Protocol: as §1
# HMGB1, P09429 = target: HMGB1, P09429
# Protocol: as §1
# HMGB2, P26583 = target: HMGB2, P26583
# Protocol: as §1
# HMGN1, P05114 = target: HMGN1, P05114
# Protocol: as §1
# HMGN2, P05204 = target: HMGN2, P05204
# Protocol: as §1
# HNRNPA0, Q13151 = target: HNRNPA0, Q13151
# Protocol: as §1
# HNRNPA1, P09651 = target: HNRNPA1, P09651
# Protocol: as §1
# HNRNPA2B1, P22626 = target: HNRNPA2B1, P22626
# Protocol: as §1
# HNRNPA3, P51991 = target: HNRNPA3, P51991
# Protocol: as §1
# HNRNPL, P14866 = target: HNRNPL, P14866
# Protocol: as §1
# ITCH, Q96J02 = target: ITCH, Q96J02
# Protocol: as §1
# JPT2, Q9H910 = target: JPT2, Q9H910
# Protocol: as §1
# KHDRBS1, Q07666 = target: KHDRBS1, Q07666
# Protocol: as §1
# LAMTOR5, O43504 = target: LAMTOR5, O43504
# Protocol: as §1
# LSM14A, Q8ND56 = target: LSM14A, Q8ND56
# Protocol: as §1
# MORF4L2, Q15014 = target: MORF4L2, Q15014
# Protocol: as §1
# MRPL27, Q9P0M9 = target: MRPL27, Q9P0M9
# Protocol: as §1
# NDUFS5, O43920 = target: NDUFS5, O43920
# Protocol: as §1
# NGDN, Q8NEJ9 = target: NGDN, Q8NEJ9
# Protocol: as §1
# NIFK, Q9BYG3 = target: NIFK, Q9BYG3
# Protocol: as §1
# NOL12, Q9UGY1 = target: NOL12, Q9UGY1
# Protocol: as §1
# NOL7, Q9UMY1 = target: NOL7, Q9UMY1
# Protocol: as §1
# [1] = substrate: NONO, Q15233
# Protocol: as §1
# PABPN1, Q86U42 = target: PABPN1, Q86U42
# Protocol: as §1
# PCLAF, Q15004 = target: PCLAF, Q15004
# Protocol: as §1
# [2] = substrate: PCNP, Q8WW12
# Protocol: as §1
# PINX1, Q96BK5 = target: PINX1, Q96BK5
# Protocol: as §1
# PPP1R14A, Q96A00 = target: PPP1R14A, Q96A00
# Protocol: as §1
# PQBP1, O60828 = target: PQBP1, O60828
# Protocol: as §1
# PUS1, Q9Y606 = target: PUS1, Q9Y606
# Protocol: as §1
# RAVER1, Q8IY67 = target: RAVER1, Q8IY67
# Protocol: as §1
# RBM3, P98179 = target: RBM3, P98179
# Protocol: as §1
# RBM42, Q9BTD8 = target: RBM42, Q9BTD8
# Protocol: as §1
# SERF2, P84101 = target: SERF2, P84101
# Protocol: as §1
# SFPQ, P23246 = target: SFPQ, P23246
# Protocol: as §1
# SHROOM3, Q8TF72 = target: SHROOM3, Q8TF72
# Protocol: as §1
# SPAG5, Q96R06 = target: SPAG5, Q96R06
# Protocol: as §1
# SYNCRIP, O60506 = target: SYNCRIP, O60506
# Protocol: as §1
# TMA16, Q96EY4 = target: TMA16, Q96EY4
# Protocol: as §1
# TRMT112, Q9UI30 = target: TRMT112, Q9UI30
# Protocol: as §1
# USP39, Q53GS9 = target: USP39, Q53GS9
# Protocol: as §1
# YBX1, P67809 = target: YBX1, P67809
# Protocol: as §1
# YBX3, P16989 = target: YBX3, P16989
# Protocol: as §1
# ZMAT2, Q96NC0 = target: ZMAT2, Q96NC0
# Protocol: as §1
# ZNF593, O00488 = target: ZNF593, O00488
# Protocol: as §1
# hCG_2014768 = target: hCG_2014768
# Protocol: as §1
binder,measurement,setting,value
B1,PRISMA enrichment of interactor (log2),"ALYREF, Q86V81",5.01 ± 0.58
same,PRISMA enrichment of interactor (log2),"ATG3, Q9NT62",5.02
same,PRISMA enrichment of interactor (log2),"BUD23, O43709",3.98
same,PRISMA enrichment of interactor (log2),"C19orf53, Q9UNZ5",6.93
same,PRISMA enrichment of interactor (log2),"CALD1, Q05682",5.48
same,PRISMA enrichment of interactor (log2),"CAPRIN1, Q14444",5.9
same,PRISMA enrichment of interactor (log2),"CCDC86, Q9H6F5",4.44
same,PRISMA enrichment of interactor (log2),"CCNB1, P14635",4.56
same,PRISMA enrichment of interactor (log2),"CDCA5, Q96FF9",4.65
same,PRISMA enrichment of interactor (log2),"CDKN2AIPNL, Q96HQ2",3.92
same,PRISMA enrichment of interactor (log2),"CHTOP, Q9Y3Y2",6.11
same,PRISMA enrichment of interactor (log2),"CIRBP, Q14011",5.74
same,PRISMA enrichment of interactor (log2),"CSRP2, Q16527",5.82
same,PRISMA enrichment of interactor (log2),"DDX42, Q86XP3",6.36
same,PRISMA enrichment of interactor (log2),"DDX5, P17844",6.13
same,PRISMA enrichment of interactor (log2),"DMAP1, Q9NPF5",4.05
same,PRISMA enrichment of interactor (log2),"DNAJC8, O75937",4.79
same,PRISMA enrichment of interactor (log2),"ECHS1, P30084",8.46
same,PRISMA enrichment of interactor (log2),"EDF1, O60869",4.95
same,PRISMA enrichment of interactor (log2),"EIF1, P41567",4.97
same,PRISMA enrichment of interactor (log2),"EIF4H, Q15056",6.5
same,PRISMA enrichment of interactor (log2),"EWSR1, Q01844",6.53
same,PRISMA enrichment of interactor (log2),"FKBP2, P26885",4.06
same,PRISMA enrichment of interactor (log2),"FUS, P35637",5.74
same,PRISMA enrichment of interactor (log2),"G3BP1, Q13283",5.24
same,PRISMA enrichment of interactor (log2),"G3BP2, Q9UN86",6.34
same,PRISMA enrichment of interactor (log2),"HMGA1, P17096",5.75
same,PRISMA enrichment of interactor (log2),"HMGB1, P09429",5.97
same,PRISMA enrichment of interactor (log2),"HMGB2, P26583",4.05
same,PRISMA enrichment of interactor (log2),"HMGN1, P05114",5.43
same,PRISMA enrichment of interactor (log2),"HMGN2, P05204",5.46
same,PRISMA enrichment of interactor (log2),"HNRNPA0, Q13151",4.94
same,PRISMA enrichment of interactor (log2),"HNRNPA1, P09651",5.6
same,PRISMA enrichment of interactor (log2),"HNRNPA2B1, P22626",4.56
same,PRISMA enrichment of interactor (log2),"HNRNPA3, P51991",5.3
same,PRISMA enrichment of interactor (log2),"HNRNPL, P14866",4.81
same,PRISMA enrichment of interactor (log2),"ITCH, Q96J02",4.41
same,PRISMA enrichment of interactor (log2),"JPT2, Q9H910",3.87
same,PRISMA enrichment of interactor (log2),"KHDRBS1, Q07666",6.94
same,PRISMA enrichment of interactor (log2),"LAMTOR5, O43504",3.95
same,PRISMA enrichment of interactor (log2),"LSM14A, Q8ND56",5.21
same,PRISMA enrichment of interactor (log2),"MORF4L2, Q15014",5.29
same,PRISMA enrichment of interactor (log2),"MRPL27, Q9P0M9",6.74
same,PRISMA enrichment of interactor (log2),"NDUFS5, O43920",4.3
same,PRISMA enrichment of interactor (log2),"NGDN, Q8NEJ9",4.31
same,PRISMA enrichment of interactor (log2),"NIFK, Q9BYG3",4.33
same,PRISMA enrichment of interactor (log2),"NOL12, Q9UGY1",4.64
same,PRISMA enrichment of interactor (log2),"NOL7, Q9UMY1",4.65
same,PRISMA enrichment of interactor (log2),[1],5.27
same,PRISMA enrichment of interactor (log2),"PABPN1, Q86U42",4.95
same,PRISMA enrichment of interactor (log2),"PCLAF, Q15004",4.78
same,PRISMA enrichment of interactor (log2),[2],3.98
same,PRISMA enrichment of interactor (log2),"PINX1, Q96BK5",4.67
same,PRISMA enrichment of interactor (log2),"PPP1R14A, Q96A00",4.72
same,PRISMA enrichment of interactor (log2),"PQBP1, O60828",4.06
same,PRISMA enrichment of interactor (log2),"PUS1, Q9Y606",4.95
same,PRISMA enrichment of interactor (log2),"RAVER1, Q8IY67",4.22
same,PRISMA enrichment of interactor (log2),"RBM3, P98179",4.96
same,PRISMA enrichment of interactor (log2),"RBM42, Q9BTD8",3.85
same,PRISMA enrichment of interactor (log2),"SERF2, P84101",6.27
same,PRISMA enrichment of interactor (log2),"SFPQ, P23246",5.8
same,PRISMA enrichment of interactor (log2),"SHROOM3, Q8TF72",9.18
same,PRISMA enrichment of interactor (log2),"SPAG5, Q96R06",4.41
same,PRISMA enrichment of interactor (log2),"SYNCRIP, O60506",5.03
same,PRISMA enrichment of interactor (log2),"TMA16, Q96EY4",4.07
same,PRISMA enrichment of interactor (log2),"TRMT112, Q9UI30",5.04
same,PRISMA enrichment of interactor (log2),"USP39, Q53GS9",4.31
same,PRISMA enrichment of interactor (log2),"YBX1, P67809",5.25
same,PRISMA enrichment of interactor (log2),"YBX3, P16989",6.52
same,PRISMA enrichment of interactor (log2),"ZMAT2, Q96NC0",4.05
same,PRISMA enrichment of interactor (log2),"ZNF593, O00488",4.76
same,PRISMA enrichment of interactor (log2),hCG_2014768,5.75

# Two entries drawn at random from the list so far, as already listed:
binder,measurement,setting,value
B1,PRISMA enrichment of interactor (log2),"TMA16, Q96EY4",4.07
same,PRISMA enrichment of interactor (log2),"NIFK, Q9BYG3",4.33

# Rewritten tab-delimited: entries from further up
binder	measurement	setting	value
B1	PRISMA enrichment of interactor (log2)	DDX42, Q86XP3	6.36
same	PRISMA enrichment of interactor (log2)	NGDN, Q8NEJ9	4.31
same	PRISMA enrichment of interactor (log2)	RBM42, Q9BTD8	3.85
